Measurements taken from paper doi:10.1101/2021.08.09.455730.
No constants are given. Whether binding was seen depends on the method and setting. In cells and extracts the contact can be indirect. Some binding calls cover weakened binding; strength is not graded here.

Sequences of proteins named here, by UniProt entry; tags and fusion partners are left off.
UniProt Q8BLR2, whole entry: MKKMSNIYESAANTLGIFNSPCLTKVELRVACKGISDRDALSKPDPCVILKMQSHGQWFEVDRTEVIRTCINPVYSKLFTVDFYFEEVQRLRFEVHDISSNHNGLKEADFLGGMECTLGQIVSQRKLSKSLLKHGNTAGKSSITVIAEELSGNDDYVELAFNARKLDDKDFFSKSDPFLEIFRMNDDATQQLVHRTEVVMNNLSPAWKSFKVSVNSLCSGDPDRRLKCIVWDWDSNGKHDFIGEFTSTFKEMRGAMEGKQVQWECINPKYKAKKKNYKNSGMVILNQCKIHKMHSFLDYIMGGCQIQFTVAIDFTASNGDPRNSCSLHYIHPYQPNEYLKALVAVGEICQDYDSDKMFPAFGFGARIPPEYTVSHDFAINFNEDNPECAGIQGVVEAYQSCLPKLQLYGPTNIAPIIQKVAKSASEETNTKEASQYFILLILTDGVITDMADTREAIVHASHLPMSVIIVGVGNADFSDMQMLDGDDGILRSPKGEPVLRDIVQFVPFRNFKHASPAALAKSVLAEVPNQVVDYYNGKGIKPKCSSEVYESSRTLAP
UniProt P14873, whole entry: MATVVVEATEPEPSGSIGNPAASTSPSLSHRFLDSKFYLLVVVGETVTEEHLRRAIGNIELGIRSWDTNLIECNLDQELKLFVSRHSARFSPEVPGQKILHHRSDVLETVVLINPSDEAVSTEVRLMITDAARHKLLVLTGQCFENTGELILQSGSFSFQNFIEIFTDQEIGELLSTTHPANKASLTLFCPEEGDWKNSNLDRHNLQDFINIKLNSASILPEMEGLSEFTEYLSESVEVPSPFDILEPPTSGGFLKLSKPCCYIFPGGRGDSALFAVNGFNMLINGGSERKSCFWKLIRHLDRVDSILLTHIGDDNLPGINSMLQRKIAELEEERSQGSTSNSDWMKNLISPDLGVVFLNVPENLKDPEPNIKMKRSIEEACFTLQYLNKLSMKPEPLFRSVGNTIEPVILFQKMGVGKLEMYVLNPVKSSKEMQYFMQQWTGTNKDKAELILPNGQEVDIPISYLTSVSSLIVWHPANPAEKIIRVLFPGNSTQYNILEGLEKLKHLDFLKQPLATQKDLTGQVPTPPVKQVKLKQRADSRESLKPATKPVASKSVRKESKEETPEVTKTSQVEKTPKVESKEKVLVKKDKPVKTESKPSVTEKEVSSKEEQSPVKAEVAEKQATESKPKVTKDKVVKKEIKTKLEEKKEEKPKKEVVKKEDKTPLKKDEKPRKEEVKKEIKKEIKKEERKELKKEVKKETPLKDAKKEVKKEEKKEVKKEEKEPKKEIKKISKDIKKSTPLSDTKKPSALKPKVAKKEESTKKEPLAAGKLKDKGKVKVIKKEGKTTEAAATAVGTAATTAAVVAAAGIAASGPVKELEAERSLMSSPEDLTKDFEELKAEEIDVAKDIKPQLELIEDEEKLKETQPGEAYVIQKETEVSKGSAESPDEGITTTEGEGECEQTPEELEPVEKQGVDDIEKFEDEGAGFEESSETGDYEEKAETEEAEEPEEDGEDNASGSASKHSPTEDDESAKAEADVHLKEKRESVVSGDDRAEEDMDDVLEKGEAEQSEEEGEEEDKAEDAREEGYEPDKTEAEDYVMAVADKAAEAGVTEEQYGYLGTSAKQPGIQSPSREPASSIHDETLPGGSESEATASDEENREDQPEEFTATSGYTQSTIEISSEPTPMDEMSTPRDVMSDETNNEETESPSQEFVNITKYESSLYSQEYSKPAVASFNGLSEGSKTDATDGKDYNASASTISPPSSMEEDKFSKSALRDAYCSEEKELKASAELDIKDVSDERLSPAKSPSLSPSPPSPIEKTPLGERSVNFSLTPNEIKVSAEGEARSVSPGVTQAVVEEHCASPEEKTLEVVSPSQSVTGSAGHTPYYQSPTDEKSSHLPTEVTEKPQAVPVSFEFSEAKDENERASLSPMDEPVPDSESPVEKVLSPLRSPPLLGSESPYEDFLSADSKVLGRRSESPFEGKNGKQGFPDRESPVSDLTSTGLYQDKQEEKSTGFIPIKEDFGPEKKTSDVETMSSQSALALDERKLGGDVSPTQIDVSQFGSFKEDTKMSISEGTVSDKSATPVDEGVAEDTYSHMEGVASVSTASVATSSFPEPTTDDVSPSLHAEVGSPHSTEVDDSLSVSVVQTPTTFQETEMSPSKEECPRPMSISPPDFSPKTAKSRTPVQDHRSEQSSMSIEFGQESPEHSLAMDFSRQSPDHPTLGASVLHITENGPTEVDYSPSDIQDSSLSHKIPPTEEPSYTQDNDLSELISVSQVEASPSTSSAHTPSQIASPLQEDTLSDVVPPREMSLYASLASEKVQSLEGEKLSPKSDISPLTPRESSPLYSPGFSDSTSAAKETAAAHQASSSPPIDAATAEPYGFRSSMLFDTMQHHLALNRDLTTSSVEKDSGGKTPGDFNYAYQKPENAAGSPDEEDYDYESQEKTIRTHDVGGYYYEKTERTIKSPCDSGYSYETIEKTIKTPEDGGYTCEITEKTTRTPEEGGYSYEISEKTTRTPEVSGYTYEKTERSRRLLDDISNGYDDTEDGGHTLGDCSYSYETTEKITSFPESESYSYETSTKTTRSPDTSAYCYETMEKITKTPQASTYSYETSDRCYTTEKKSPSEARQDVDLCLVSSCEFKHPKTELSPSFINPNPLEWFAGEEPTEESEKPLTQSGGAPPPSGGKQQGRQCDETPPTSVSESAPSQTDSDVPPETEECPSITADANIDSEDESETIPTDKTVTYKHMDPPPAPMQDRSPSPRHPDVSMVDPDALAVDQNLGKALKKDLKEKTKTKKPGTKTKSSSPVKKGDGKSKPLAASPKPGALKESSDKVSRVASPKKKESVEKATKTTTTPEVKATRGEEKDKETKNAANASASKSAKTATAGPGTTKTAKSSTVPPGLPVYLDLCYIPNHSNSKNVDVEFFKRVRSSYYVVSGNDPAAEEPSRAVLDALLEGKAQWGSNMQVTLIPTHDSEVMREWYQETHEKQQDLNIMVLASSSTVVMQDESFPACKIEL
UniProt Q9JIS5, whole entry: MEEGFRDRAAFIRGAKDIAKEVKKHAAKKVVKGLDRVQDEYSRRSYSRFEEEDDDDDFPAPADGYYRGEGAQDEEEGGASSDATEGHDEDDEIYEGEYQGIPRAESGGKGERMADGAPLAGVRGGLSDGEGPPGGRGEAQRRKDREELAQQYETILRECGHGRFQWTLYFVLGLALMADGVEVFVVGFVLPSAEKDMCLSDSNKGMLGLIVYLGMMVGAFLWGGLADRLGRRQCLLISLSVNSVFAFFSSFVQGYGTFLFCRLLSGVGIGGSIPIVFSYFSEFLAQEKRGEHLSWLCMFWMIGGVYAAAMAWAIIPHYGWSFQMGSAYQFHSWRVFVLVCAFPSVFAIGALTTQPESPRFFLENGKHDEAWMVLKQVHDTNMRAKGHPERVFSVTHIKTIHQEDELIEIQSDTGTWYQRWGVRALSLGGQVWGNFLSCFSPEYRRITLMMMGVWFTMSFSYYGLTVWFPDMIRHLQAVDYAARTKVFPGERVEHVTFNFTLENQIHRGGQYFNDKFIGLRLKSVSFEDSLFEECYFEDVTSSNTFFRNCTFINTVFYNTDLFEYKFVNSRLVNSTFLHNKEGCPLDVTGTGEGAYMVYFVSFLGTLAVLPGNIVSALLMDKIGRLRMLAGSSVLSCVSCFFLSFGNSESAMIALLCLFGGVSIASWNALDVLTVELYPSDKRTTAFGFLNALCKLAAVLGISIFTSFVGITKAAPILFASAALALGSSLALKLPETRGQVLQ
UniProt P61264, whole entry: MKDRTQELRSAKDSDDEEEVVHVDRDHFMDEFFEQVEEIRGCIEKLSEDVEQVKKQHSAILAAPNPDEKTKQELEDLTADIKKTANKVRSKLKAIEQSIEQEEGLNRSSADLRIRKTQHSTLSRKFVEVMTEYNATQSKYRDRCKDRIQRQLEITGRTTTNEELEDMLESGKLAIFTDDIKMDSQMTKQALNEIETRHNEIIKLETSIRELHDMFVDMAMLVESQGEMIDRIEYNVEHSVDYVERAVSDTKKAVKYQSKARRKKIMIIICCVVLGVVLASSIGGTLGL

target: GST-Cpne4 (UniProt Q8BLR2); assay: pull-down

binding, binds:
Map1b (from UniProt P14873 1-2464), SV2a (from UniProt Q9JIS5 1-742), Stx1b (Syntaxin 1b) (from UniProt P61264 1-288)
